# Experimental data as given in PubChem BioAssay AID2551 (National Center for Advancing Translational Sciences (NCATS), 2010).
# Sequences of proteins named here, by UniProt entry; tags and fusion partners are left off. A change or cut given only in a name is not applied to a line headed by its entry.
# UniProt P51450: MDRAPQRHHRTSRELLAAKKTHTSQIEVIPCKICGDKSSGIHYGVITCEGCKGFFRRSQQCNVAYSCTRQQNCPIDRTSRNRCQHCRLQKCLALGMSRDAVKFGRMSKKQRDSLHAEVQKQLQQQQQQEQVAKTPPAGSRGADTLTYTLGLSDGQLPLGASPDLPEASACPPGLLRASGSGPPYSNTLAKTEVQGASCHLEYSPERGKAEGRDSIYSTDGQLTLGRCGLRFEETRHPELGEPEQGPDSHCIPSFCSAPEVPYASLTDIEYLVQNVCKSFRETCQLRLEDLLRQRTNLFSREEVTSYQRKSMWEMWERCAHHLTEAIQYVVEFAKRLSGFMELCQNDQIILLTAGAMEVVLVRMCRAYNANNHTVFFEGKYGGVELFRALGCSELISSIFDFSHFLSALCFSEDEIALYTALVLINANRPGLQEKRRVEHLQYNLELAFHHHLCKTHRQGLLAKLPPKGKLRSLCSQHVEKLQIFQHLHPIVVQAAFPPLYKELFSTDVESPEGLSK
# Hit rate of the full screen: of about 310,000 compounds, about 17,000 (5.5%) were called active. The shares of active, inactive and inconclusive entries below differ from those in the screen. Calls come from the whole dose curve; as a rule, active = well fitted inhibition curve with a large enough effect; inconclusive = small, poorly fitted or top-dose-only effect, or effect the other way; inactive = no such curve, though single readings can be large or run the other way. Where the call is inconclusive, the potency comes from a doubtful curve fit.
# Biological target: Nuclear receptor ROR-gamma (Mus musculus) (UniProt P51450)
# Experiment: qHTS for inhibitors of ROR gamma transcriptional activity; note: nearly all actives have a fitted effect of over 60% in size
# Details: Drosophila S2 Gal4-RORgamma UAS-luciferase reporter, 20 h; activity change, negative = inhibition: at 53.6 µM (top of the series)
# Outline: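 Luciferase reporter read in Schneider cells carrying Gal4-RORγ (mouse) and UAS-Photinus luciferase; cells given compound 1 h before 700 uM copper sulfate induction, then incubated 20 h at ambient temperature.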
# % is set by controls: 0 for no effect and ±100 for the full control effect; potency is the fitted concentration of half-maximal effect.
SMILES,Potency,"activity change, negative = inhibition"
S=C(NCc1ccccn1)Nc1ccccc1,active: 14.1 µM,
COC(=O)CCCNC(=O)c1ccccn1,inactive,
CCOc1cc(/C=N/NC(=O)c2ccc3c(c2)OCCO3)cc(Br)c1O,"inconclusive: 11.2 µM [activator, partial curve]",
CCOc1ccc(CNC(=S)NCc2ccc(OCC)cc2)cc1,active: 10 µM,
CCn1c(CC(=O)Nc2ccccc2C)nnc1SCC(=O)NC1CCCC1,inactive,
Cc1ccc(SCC(Cc2ccccc2)N2CCN(CCc3ccccc3)CCC2=O)cc1 (stereo unspecified),inactive,
Cc1cccnc1CCNC(=O)c1ccc(OC2CCN(Cc3ccccn3)CC2)cc1,active: 14.1 µM,
COc1ccc(-c2nnc(NC(=O)CSc3ccccc3)s2)cc1OC,"inconclusive: 20 µM [inhibitor, single point]",
Cn1nnnc1SCC(=O)Nc1nc2c(s1)CCCC2,"inconclusive: 0.112 µM [activator, full curve, poor fit]",
O=C(Nc1nonc1-c1ccc(Cl)cc1)c1ccco1,"inconclusive: 15.8 µM [inhibitor, partial curve]",
Cc1ccc(C(c2sc3nc(C)nn3c2O)N2CCN(C(=O)c3ccco3)CC2)cc1 (stereo unspecified),"inconclusive: 12.6 µM [activator, single point]",
Cc1ccc(Cl)cc1Nc1nc(-c2sc(NC(=O)C(C)(C)C)nc2C)cs1,"inconclusive: 31.6 µM [inhibitor, single point]",
Cc1cccc(Nc2nc(-c3ccc(F)c(C)c3)cs2)n1,inactive,
Cc1cccc(C(=O)Nc2nnc(-c3ccc(C(C)(C)C)cc3)s2)c1,active: 14.1 µM,
COc1ccccc1CNCC(=O)Nc1cc(S(=O)(=O)N2CCCCCC2)ccc1Cl,"inconclusive: 1.12 µM [activator, partial curve, poor fit]",
Cc1ccc(C2=NNC(C(O)C(O)C(O)CO)S2)cc1 (stereo unspecified),"inconclusive: 35.5 µM [inhibitor, single point]",
C=CCNC(=S)N/N=C/c1ccc(N(CC)Cc2ccccc2)cc1,active: 0.501 µM,
CCOC(=O)C(=CNNc1cccc(Cl)c1)C(=O)OCC,"inconclusive: 14.1 µM [inhibitor, single point]",
C=CCOc1ccc(C2C(C#N)=C(N)N(N(C)C)C3=C2C(=O)CCC3)cc1 (stereo unspecified),inactive,
Nc1nnc(SCC(=O)OCC(=O)Nc2ccccc2)s1,inactive,
Cc1cccc(N2CCN(C(=O)CSCc3c(C)noc3C)CC2)c1C,"inconclusive: 31.6 µM [inhibitor, single point]",
CC(C)(C)C(=O)Nc1ccc(-c2nc3ccccc3c(=O)o2)cc1,"inconclusive: 12.6 µM [inhibitor, single point]",
CCN1CCN(C(=O)Nc2cccc3ccccc23)CC1,inactive,
N#CCCn1nc(-c2ccc(Br)cc2)cc1Nc1ccccc1NC(=O)C(F)(F)F,"inconclusive: 12.6 µM [activator, partial curve]",
CNS(=O)(=O)c1cc(NC(=O)CCCNC(=O)c2ccc(Cl)cc2)ccc1C,"inconclusive: 35.5 µM [activator, single point]",
Cc1sc2ncnc(N=Nc3c(O)[nH]c4ccccc34)c2c1C,,inactive: -5.76% [at 10 µM]

# Another view of some results above:
SMILES	Potency	activity change, negative = inhibition
Cc1ccc(C2=NNC(C(O)C(O)C(O)CO)S2)cc1 (stereo unspecified)	inconclusive: 35.5 µM [inhibitor, single point]	
C=CCNC(=S)N/N=C/c1ccc(N(CC)Cc2ccccc2)cc1	active: 0.501 µM	

# (further entries)

SMILES,Potency,"activity change, negative = inhibition"
O=C(NC1CC2CCCC(C1)N2C(=O)NC1CCCCC1)c1ccc(F)cc1 (stereo unspecified),"inconclusive: 25.1 µM [inhibitor, single point]",
Cn1c(N)c(C(=O)COC(=O)C2CCCC2)c(=O)n(C)c1=O,"inconclusive: 17.8 µM [activator, single point]",
CCC(C)c1ccc(NC(=S)NCc2ccccn2)cc1 (stereo unspecified),active: 2.51 µM,
COC(=O)CCCC1=CC2=CC(=O)C(C)(OC(=O)c3cccs3)C(=O)C2=CN1Cc1ccc2c(c1)OCO2 (stereo unspecified),inactive,
CC(C)(C)OC(=O)[C@H](Cc1ccccc1)NC(=O)c1nc[nH]c1C(=O)NCC(=O)OCc1ccccc1,"inconclusive: 22.4 µM [inhibitor, single point]",
COc1ccc(OCc2cc(C(=O)N3CCC(OC)CC3)no2)c2ccccc12,"inconclusive: 0.631 µM [activator, full curve, poor fit]",
CCc1ccc(NC2Nc3cc(C)nn3S2)cc1 (stereo unspecified),active: 1.58 µM,
Cc1[nH]n2c(=O)c3c(nc2c1-c1ccccc1)CCC3,active: 12.6 µM,
O=C(CSc1ccccn1)Nc1ccc2c(c1)C(=O)c1ccccc1C2=O,"inconclusive: 35.5 µM [inhibitor, single point]",
CCN(Cc1nc(-c2ccc(OC)c(OC)c2)no1)C(=O)c1ccoc1C,inactive,
CCOc1ccc(C2/C(=C(\O)c3cccc(OC)c3)C(=O)C(=O)N2c2ccccn2)cc1OC (stereo unspecified),inactive,
Nc1[nH]n(-c2ccccc2)c(=O)c1N=Nc1ccc2c(c1)OCO2,"inconclusive: 35.5 µM [inhibitor, single point]",
Cc1ccc2[nH]c3c(c2c1)CC/C(=C/c1ccccc1)C3=O,active: 3.98 µM,
C[C@@H](C(=O)O)[C@H]1C[C@]1(C)[C@H](NC(=O)OCc1ccccc1)c1ccccc1,"inconclusive: 35.5 µM [activator, single point]",
Cc1onc(-c2ccccc2Cl)c1C(=O)NC(=S)Nc1ccccc1C(N)=O,"inconclusive: 20 µM [inhibitor, single point]",
O=S(c1ccc2ccccc2c1)c1cnns1 (stereo unspecified),active: 11.2 µM,
O=S(=O)(Nc1ccc(-c2nc3cccnc3s2)cc1)c1ccc(Cl)s1,"inconclusive: 12.6 µM [activator, single point]",
CN(C)c1nc(=NCc2ccco2)ss1,"inconclusive: 15.8 µM [inhibitor, single point]",
COC(=O)c1c(NC(=S)NNC(=O)c2ccc(Cl)s2)sc(C(=O)N(C)C)c1C,"inconclusive: 0.005 µM [inhibitor, partial curve, poor fit]",
Cc1nn(Cc2ccccc2)c(Cl)c1/C=C1\NC(=S)NC1=O,"inconclusive: 22.4 µM [inhibitor, single point]",
O=C(CSc1ccc(F)cc1)Nc1ccc(Br)cc1,"inconclusive: 4.47 µM [activator, full curve]",
COc1cccc(Cn2c(=O)c(-c3cccc(F)c3)nc3cncnc32)c1,inactive,
COC(=O)C1NN=C(C(=O)c2ccc(Cl)cc2)C1c1ccc(OC)cc1 (stereo unspecified),"inconclusive: 15.8 µM [activator, single point]",
O=C(c1nn2c(C(F)(F)F)cc(-c3cccs3)nc2c1Cl)N1CCCc2ccccc21,inactive,
CCOC(=O)C1CCCN(S(=O)(=O)c2ccccc2)C1 (stereo unspecified),inactive,
CCn1c(C)nc2cc(C(=O)N/N=C/c3ccccc3C)ccc21,"inconclusive: 35.5 µM [inhibitor, single point]",

SMILES,Potency,"activity change, negative = inhibition"
Oc1cc(NCc2cccnc2)ccc1-c1nc2ccccc2o1,"inconclusive: 35.5 µM [inhibitor, single point]",
COc1ccccc1/C=C/C(=O)NCCC1=CCCCC1,inactive,
Cn1nccc1-c1cc(Cl)cc(Cl)c1O,"inconclusive: 17.8 µM [inhibitor, single point]",
O=C(c1cccc2ccccc12)N1CCN(c2ccc([N+](=O)[O-])c(N3CCOCC3)c2)CC1,"inconclusive: 35.5 µM [activator, single point]",
O=C(NC(=S)Nc1ccc(NC(=O)c2ccccc2)cc1)c1ccc(F)cc1,inactive,
C=CCSc1nnc(NC(=O)c2cccc(S(=O)(=O)N3CCOCC3)c2)s1,"inconclusive: 22.4 µM [inhibitor, single point]",
CC(=O)c1c(COC(=O)c2ccncc2)nc2ccccc2[n+]1[O-],active: 11.2 µM,
CCOC(=O)c1c(C)nc(-c2ccccc2)nc1NC(=O)C(C)C,inactive,
N#C/C(=C/c1ccc(O)c([N+](=O)[O-])c1)C(=O)Nc1ccccc1,"inconclusive: 35.5 µM [inhibitor, single point]",
CCc1ccc(CNC(=O)c2ccc3nc(C4CCCCC4)oc3c2)nc1,active: 6.31 µM,
c1ccc(COc2ccccc2CNC2CCCC2)cc1,"inconclusive: 11.2 µM [inhibitor, single point]",
CCSCc1nc2ccccn2c1Br,inactive,
Cc1cccc(CNc2nc(-c3cccnc3)nc3ccccc23)c1,inactive,
COc1ccc(S(=O)(=O)n2nc(OCc3cccs3)cc2N)cc1,"inconclusive: 12.6 µM [activator, partial curve, poor fit]",
CCc1ccc(NS(=O)(=O)c2c(C)noc2C)cc1,inactive,
CCOC(=O)C/C(C)=N/NC(=O)C1CC1(c1ccccc1)c1ccccc1 (stereo unspecified),active: 10 µM,
COc1cc(C)c(C)cc1S(=O)(=O)NC1CC(C)(C)NC(C)(C)C1,"inconclusive: 20 µM [inhibitor, single point]",
c1ccc(C(Cc2nc(-c3ccncc3)no2)c2ccccc2)cc1,"inconclusive: 22.4 µM [inhibitor, single point]",
COc1ccnc(N2CCN(c3ccccc3)CC2)c1C#N,"inconclusive: 35.5 µM [activator, single point]",
Cc1ccn(CC(=O)N2N=C(C(F)F)CC2(O)C(F)F)n1 (stereo unspecified),inactive,
CS(=O)(=O)Nc1cccc(-c2nccc(Nc3ccc(F)cc3)n2)c1,"inconclusive: 14.1 µM [activator, single point]",
COc1ccc(C(=O)NC(=S)N(C)Cc2ccccc2)cc1Br,active: 0.398 µM,
Cc1nnc(Sc2cc(NCCCO)c([N+](=O)[O-])c3nonc23)s1,active: 3.55 µM,
CCOc1ccc(N(CC(=O)NCCSCc2ccc(Cl)cc2)S(C)(=O)=O)cc1,"inconclusive: 35.5 µM [activator, single point]",

# Part of the list above in a different format.
SMILES	Potency	activity change, negative = inhibition
O=C(CSc1ccccn1)Nc1ccc2c(c1)C(=O)c1ccccc1C2=O	inconclusive: 35.5 µM [inhibitor, single point]	
CCN(Cc1nc(-c2ccc(OC)c(OC)c2)no1)C(=O)c1ccoc1C	inactive	
O=S(c1ccc2ccccc2c1)c1cnns1 (stereo unspecified)	active: 11.2 µM	
CC(=O)c1c(COC(=O)c2ccncc2)nc2ccccc2[n+]1[O-]	active: 11.2 µM	
CCOC(=O)c1c(C)nc(-c2ccccc2)nc1NC(=O)C(C)C	inactive	
CCSCc1nc2ccccn2c1Br	inactive	
